Measured data: PubChem BioAssay AID1671195 (Yale University, 2021)

- Screen: 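Knockdowns that increase or decrease uptake of fluorescent LDL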 (primary screen)
- System: human Huh7 hepatoma cells
- Reagent: siRNA pool against human genes, 18 nM
- Timing: about 2 to 2.5 days of knockdown, then 8 h LDL uptake
- Treatment: DiI-labelled LDL at 30 µg/ml for 8 h, in lipoprotein-deficient serum medium
- Read-out: 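Fluorescent LDL signal imaged in cells, scaled to the plate median, robust z-score for each replicate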
- Reading the numbers: robust z-score: higher = more LDL uptake after knockdown
- Call rule: 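Active when two or more replicates show a robust z-score above 2 or below -2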
In all, the deposit lists about 22,000 reagents; shown is a random part of them. About 1,510 of them (6.9%) were called active. 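Active includes knockdowns raising or lowering LDL uptake; positive z-scores mean more uptake, negative mean less.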 No sequences are given here.

What is on record for HIVEP3?
robust z-score, replicate 1: -1.15; robust z-score, replicate 2: -1.73; robust z-score, replicate 3: -1.57; outcome: inactive

For QSER1, what does the deposit list?
robust z-score, replicate 1: -0.965; robust z-score, replicate 2: -1.1; robust z-score, replicate 3: -0.704; outcome: inactive

For STAM, how do the results read?
robust z-score, replicate 1: 1.28; robust z-score, replicate 2: 0.764; robust z-score, replicate 3: 0.466; outcome: inactive

What is on record for ELP5?
robust z-score, replicate 1: -0.0887; robust z-score, replicate 2: 1.59; robust z-score, replicate 3: -1.22; outcome: inactive

Which result is listed for RASSF2?
robust z-score, replicate 1: 0.376; robust z-score, replicate 2: 0.0804; robust z-score, replicate 3: 0.486; outcome: inactive

For XRCC3, what was measured?
robust z-score, replicate 1: 2.22; robust z-score, replicate 2: 2.32; robust z-score, replicate 3: 2.5; outcome: active

With SLC2A11, how do the results read?
robust z-score, replicate 1: -1.26; robust z-score, replicate 2: -1.17; robust z-score, replicate 3: -1.15; outcome: inactive

What did the screen give for LOC441047 (retired record)?
robust z-score, replicate 1: -0.951; robust z-score, replicate 2: -1.35; robust z-score, replicate 3: -1.11; outcome: inactive

With ESRRA, how do the results read?
robust z-score, replicate 1: 1.17; robust z-score, replicate 2: 1.26; robust z-score, replicate 3: 0.767; outcome: inactive

For AMOTL1, how do the results read?
robust z-score, replicate 1: 0.777; robust z-score, replicate 2: 0.155; robust z-score, replicate 3: 0.0582; outcome: inactive

What did the screen give for CLEC3A?
robust z-score, replicate 1: -0.313; robust z-score, replicate 2: -1.08; robust z-score, replicate 3: -1.17; outcome: inactive

With SARAF, what was measured?
robust z-score, replicate 1: 0.916; robust z-score, replicate 2: 2.01; robust z-score, replicate 3: -0.223; outcome: inactive

Which result is listed for ATP6V1C2?
robust z-score, replicate 1: 0.387; robust z-score, replicate 2: 0.18; robust z-score, replicate 3: 0.308; outcome: inactive

Which result is listed for PON1?
robust z-score, replicate 1: 1.01; robust z-score, replicate 2: -0.132; robust z-score, replicate 3: 1.32; outcome: inactive

With LINC02112, how do the results read?
robust z-score, replicate 1: 0.178; robust z-score, replicate 2: 0.641; robust z-score, replicate 3: 0.687; outcome: inactive

How did the screen score LOC202546 (retired record)?
robust z-score, replicate 1: -0.316; robust z-score, replicate 2: -0.682; robust z-score, replicate 3: -0.828; outcome: inactive

Which result is listed for LOC442279 (retired record)?
robust z-score, replicate 1: 0.336; robust z-score, replicate 2: -0.0608; robust z-score, replicate 3: 0.348; outcome: inactive

What did the screen give for PINLYP?
robust z-score, replicate 1: -0.448; robust z-score, replicate 2: -0.417; robust z-score, replicate 3: -0.376; outcome: inactive

Which result is listed for MAP4?
robust z-score, replicate 1: -0.549; robust z-score, replicate 2: -0.391; robust z-score, replicate 3: -0.97; outcome: inactive

For CTSC, what was measured?
robust z-score, replicate 1: 1.96; robust z-score, replicate 2: 0.84; robust z-score, replicate 3: 1.25; outcome: inactive

Which result is listed for DOK3?
robust z-score, replicate 1: 0.339; robust z-score, replicate 2: -0.807; robust z-score, replicate 3: -0.223; outcome: inactive

For FRAT2, what was measured?
robust z-score, replicate 1: 1.03; robust z-score, replicate 2: -0.983; robust z-score, replicate 3: 1.86; outcome: inactive

Which result is listed for TIPE3?
robust z-score, replicate 1: 0.999; robust z-score, replicate 2: 1.27; robust z-score, replicate 3: 0.723; outcome: inactive

With THUMPD3, what was measured?
robust z-score, replicate 1: 0.251; robust z-score, replicate 2: -0.306; robust z-score, replicate 3: -0.139; outcome: inactive

For DHRS7, what does the deposit list?
robust z-score, replicate 1: -1.75; robust z-score, replicate 2: -1.86; robust z-score, replicate 3: -1.96; outcome: inactive

What is on record for PPP1R21?
robust z-score, replicate 1: -0.946; robust z-score, replicate 2: -0.527; robust z-score, replicate 3: 0.332; outcome: inactive

For RPL36, how do the results read?
robust z-score, replicate 1: -1.32; robust z-score, replicate 2: -0.768; robust z-score, replicate 3: -0.746; outcome: inactive

Which result is listed for ZFP92?
robust z-score, replicate 1: -0.628; robust z-score, replicate 2: -1.15; robust z-score, replicate 3: -0.727; outcome: inactive

Which result is listed for CFAP73?
robust z-score, replicate 1: 0.441; robust z-score, replicate 2: 1.03; robust z-score, replicate 3: 0.877; outcome: inactive

Which result is listed for KRAS?
robust z-score, replicate 1: 0.00674; robust z-score, replicate 2: -0.478; robust z-score, replicate 3: -0.00875; outcome: inactive

Entries listed so far marked active, once more:
XRCC3: robust z-score, replicate 1 = 2.22; robust z-score, replicate 2 = 2.32; robust z-score, replicate 3 = 2.5; outcome = active
